Experimental findings from publication PMC3479139, “Diverse Small Molecule Inhibitors of Human Apurinic/Apyrimidinic Endonuclease APE1 Identified from a Screen of a Large Public Collection” (PLoS ONE, 2012) are described below.

Sequences of proteins named here, by UniProt entry; tags and fusion partners are left off.
UniProt P27695, whole entry: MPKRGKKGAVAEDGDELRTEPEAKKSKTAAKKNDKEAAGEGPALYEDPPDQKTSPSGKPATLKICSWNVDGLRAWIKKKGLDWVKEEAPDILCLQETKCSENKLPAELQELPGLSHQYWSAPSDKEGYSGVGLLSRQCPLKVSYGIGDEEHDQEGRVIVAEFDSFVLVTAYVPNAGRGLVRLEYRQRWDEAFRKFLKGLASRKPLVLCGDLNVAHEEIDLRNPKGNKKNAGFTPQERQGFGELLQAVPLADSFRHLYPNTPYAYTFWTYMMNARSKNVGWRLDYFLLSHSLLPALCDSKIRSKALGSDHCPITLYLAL

Experiment [1] deals with double-stranded 17-mer DNA fragment. Briefly: ThO (Thiazole Orange) DNA displacement assay.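 Also: miniaturized displacement of the intercalating dye from unlabeled duplex DNA, used to flag nonspecific DNA binders, chiefly intercalators, groove binders may be missed.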 As to conditions: read-out: ThO-DNA binding IC50.
The next experiment has as its target E. coli Endo IV (Escherichia coli, UniProt P0A6C1). In words: E. coli Endo IV profiling counterscreen.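 Also: selectivity counterscreen of candidate APE1 inhibitors against the bacterial endonuclease Endo IV, run in the same assay format as the primary APE1 high-throughput screen.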 The class given is biochemical. The following applies: read-out: EndoIV IC50. (The purpose of a counterscreen is to sort out artefacts and off-target activity.)
For experiment [2], the target named is T1, APE1 (Homo sapiens, UniProt P27695). Briefly: Fluorescence polarization (FP) displacement assay of APE1 binding to AP-DNA probe.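 Also: TAMRA 5′-labeled duplex DNA with THF abasic site (5 nM) and APE1 (20 nM), Mg2+-free buffer, 15 min at room temperature, inhibition seen as lowered polarization.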 As to conditions: read-out: FP IC50.
For experiment [3], the target named is T1, APE1. In words: Fluorogenic kinetic qHTS APE1 incision assay (primary screen and retest of cherrypicked samples).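 Also: purified APE1 cleaving a fluorophore/dark-quencher labelled 17-mer duplex DNA bearing a tetrahydrofuran AP site, fluorescence rise followed kinetically over the first 2 min, inhibition normalized to controls.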 The format is biochemical.

The structures given here were assigned with low confidence; some may be wrong.

The term IC50 denotes the concentration that inhibits the measured activity by half. For `[O][C@H]1[C@@H](O)[C@@H](CO)O[C@@H](O[C@@H]2[C@@H]3OC[C@H]2O[C@H](O[C@@H]2[C@@H](O)[C@H](C[C@@H]4[C@@H]5OC[C@H]4O[CH][C@@H]5O)O[C@H](CO)[C@@H]2OS(=O)(=O)O)[C@@H]3OS(=O)(=O)O)[C@@H]1O`, the IC50 is over 57 µM in experiment [1]; over 57 µM on E. coli Endo IV; over 57 µM on APE1 [2]; 7.9 µM at APE1 [3] (read-out: APE1 Retest IC50, retest of cherrypicked sample); 10 µM at APE1 [3] (read-out: APE1 qHTS IC50, initial quantitative high-throughput screen).
